PMC4743010
No constants are given. Whether binding was seen depends on the method and setting. Binding can be weak; no strength is given. For part of these data: Tags and fused reporters may be left off the sequences shown. For part of these data: In cells and extracts the contact can be indirect.

Key:
[1] = biological target: T1, FLAG-UPF1 (pcIneo-FLAG-UPF1) (UniProt Q92900); assay: co-IP; FLAG-UPF1 or FLAG-GFP co-transfected with T7-DHX34 constructs in HEK293T; anti-FLAG immunoprecipitates probed for T7-DHX34 constructs
T1 sequence: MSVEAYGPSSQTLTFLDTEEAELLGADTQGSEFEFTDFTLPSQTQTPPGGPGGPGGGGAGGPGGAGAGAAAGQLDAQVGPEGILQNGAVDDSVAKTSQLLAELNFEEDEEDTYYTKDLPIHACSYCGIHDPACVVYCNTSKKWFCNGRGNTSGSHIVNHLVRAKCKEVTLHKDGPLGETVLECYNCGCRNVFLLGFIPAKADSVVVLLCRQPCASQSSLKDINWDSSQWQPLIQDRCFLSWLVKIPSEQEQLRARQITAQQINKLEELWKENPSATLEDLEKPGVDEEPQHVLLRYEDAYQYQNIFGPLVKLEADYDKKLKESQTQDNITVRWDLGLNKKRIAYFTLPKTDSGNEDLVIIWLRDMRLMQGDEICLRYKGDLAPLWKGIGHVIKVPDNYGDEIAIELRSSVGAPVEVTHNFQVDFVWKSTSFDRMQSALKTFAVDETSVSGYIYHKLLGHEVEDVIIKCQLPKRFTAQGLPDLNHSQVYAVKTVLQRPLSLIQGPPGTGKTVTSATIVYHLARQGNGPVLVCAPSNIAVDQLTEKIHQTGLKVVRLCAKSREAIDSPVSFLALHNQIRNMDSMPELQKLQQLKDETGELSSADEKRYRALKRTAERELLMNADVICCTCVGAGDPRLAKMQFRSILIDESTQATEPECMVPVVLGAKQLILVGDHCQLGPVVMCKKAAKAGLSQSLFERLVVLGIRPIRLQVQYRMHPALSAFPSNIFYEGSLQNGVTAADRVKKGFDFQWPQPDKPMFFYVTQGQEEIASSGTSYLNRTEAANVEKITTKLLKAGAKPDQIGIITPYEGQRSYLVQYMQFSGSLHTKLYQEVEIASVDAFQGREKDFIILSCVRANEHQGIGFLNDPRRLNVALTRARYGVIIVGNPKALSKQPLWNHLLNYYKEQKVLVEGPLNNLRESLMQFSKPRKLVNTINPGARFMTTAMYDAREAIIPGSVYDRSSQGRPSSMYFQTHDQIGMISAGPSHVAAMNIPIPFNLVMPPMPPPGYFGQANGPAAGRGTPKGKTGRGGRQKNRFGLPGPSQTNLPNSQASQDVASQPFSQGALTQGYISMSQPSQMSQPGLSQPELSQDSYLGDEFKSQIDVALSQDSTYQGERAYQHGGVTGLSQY

[2] = biological target: His-UPF1 (residues 115–914) (UniProt Q92900); assay: pull-down; co-incubation of purified T7-DHX34 (full-length, ΔCTD, 1–809) with purified FLAG-tagged full-length UPF1 or UPF1 (115–914); performed as described previously (ref. 38); both purified
[3] = biological target: T2, purified FLAG-tagged full-length UPF1 (UniProt Q92900); assay: as above
T2 sequence: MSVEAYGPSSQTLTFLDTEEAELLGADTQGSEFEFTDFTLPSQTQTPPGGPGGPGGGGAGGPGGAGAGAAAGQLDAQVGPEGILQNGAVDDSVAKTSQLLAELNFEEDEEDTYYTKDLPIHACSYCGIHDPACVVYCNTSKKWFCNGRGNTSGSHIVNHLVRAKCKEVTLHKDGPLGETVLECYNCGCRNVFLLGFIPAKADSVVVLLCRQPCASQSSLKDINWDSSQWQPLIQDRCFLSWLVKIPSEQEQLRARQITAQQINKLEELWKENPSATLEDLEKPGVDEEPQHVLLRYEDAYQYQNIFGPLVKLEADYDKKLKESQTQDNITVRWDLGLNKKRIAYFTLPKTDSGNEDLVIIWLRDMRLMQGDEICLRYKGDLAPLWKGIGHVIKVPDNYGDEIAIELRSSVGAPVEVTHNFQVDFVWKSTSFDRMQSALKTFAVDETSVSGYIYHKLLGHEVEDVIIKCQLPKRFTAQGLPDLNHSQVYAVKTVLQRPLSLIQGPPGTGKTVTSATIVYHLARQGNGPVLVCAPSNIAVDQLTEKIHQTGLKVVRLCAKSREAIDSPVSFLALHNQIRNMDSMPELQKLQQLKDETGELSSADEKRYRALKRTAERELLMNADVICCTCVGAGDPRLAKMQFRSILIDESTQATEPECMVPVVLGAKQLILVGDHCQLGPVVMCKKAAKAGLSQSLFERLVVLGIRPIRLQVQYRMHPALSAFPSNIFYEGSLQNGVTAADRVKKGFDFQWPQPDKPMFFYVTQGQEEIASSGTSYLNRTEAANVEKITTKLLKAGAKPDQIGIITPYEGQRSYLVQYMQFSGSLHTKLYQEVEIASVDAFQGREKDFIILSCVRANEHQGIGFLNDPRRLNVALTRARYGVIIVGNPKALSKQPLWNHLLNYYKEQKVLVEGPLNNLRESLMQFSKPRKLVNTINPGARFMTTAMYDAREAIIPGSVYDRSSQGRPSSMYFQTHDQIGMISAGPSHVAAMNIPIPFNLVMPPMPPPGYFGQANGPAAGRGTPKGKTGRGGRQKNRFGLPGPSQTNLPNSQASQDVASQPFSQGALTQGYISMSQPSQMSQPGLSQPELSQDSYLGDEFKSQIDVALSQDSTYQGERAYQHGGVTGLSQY

[4] = biological target: FLAG-HA-SBP-SMG1C (SMG1–SMG8–SMG9 complex); assay: negative-stain single-particle electron microscopy; SMG1C and DHX34 mixed at 1:1.5 molar ratio, fixed with 0.02% glutaraldehyde 10 min at 25 °C, stained with 1% uranyl formate; 13,080 images of the complex, 3D structure at about 21 Å; both purified
[5] = biological target: FLAG-HA-SBP-SMG1C (SMG1–SMG8–SMG9 complex); assay: pull-down; FLAG-HA-SBP-SMG1C (17 nM) or SBP-GFP mixed with a three-fold molar excess of FLAG-DHX34 (full length or ΔCTD) in 20 mM Tris-HCl pH 7.5, 100 mM NaCl, 2.5 mM MgCl2, 0.5 mM DTT, 0.01% Tween 20, 4 °C; bound to Streptavidin Sepharose, eluted with 2 mM biotin; anti-FLAG western blot; both purified
[6] = biological target: His-UPF1 (residues 115–914) (UniProt Q92900); assay: pull-down; His-UPF1 (115–914) 0.4 μM with two-fold molar excess of FLAG-DHX34 and/or 15 nM FLAG-HA-SBP-SMG1C in 40 mM Tris-HCl pH 7.5, 200 mM NaCl, 10% glycerol, 20 mM imidazole, 1 mM MgCl2, 1 μM ZnCl2, 2 mM DTT, 0.1% NP-40; 20 min 25 °C; Ni-NTA agarose, eluted with 500 mM imidazole; anti-FLAG and anti-His blots; both purified

In the case of “T7-DHX34 ΔCTD (from UniProt Q14147) (domain or fragment)”, the binding [1] is reported as “binds”, the binding [2] is reported as “binds” and the binding [3] is reported as “binds”.

“T7-DHX34 ΔOB (from UniProt Q14147) (enzyme)” was tested, and the binding [1] was “binds”.

B1: FLAG-DHX34 full-length (enzyme, UniProt Q14147 1-1143)
chain: MPPPRTREGRDRRDHHRAPSEEEALEKWDWNCPETRRLLEDAFFREEDYIRQGSEECQKFWTFFERLQRFQNLKTSRKEEKDPGQPKHSIPALADLPRTYDPRYRINLSVLGPATRGSQGLGRHLPAERVAEFRRALLHYLDFGQKQAFGRLAKLQRERAALPIAQYGNRILQTLKEHQVVVVAGDTGCGKSTQVPQYLLAAGFSHVACTQPRRIACISLAKRVGFESLSQYGSQVGYQIRFESTRSAATKIVFLTVGLLLRQIQREPSLPQYEVLIVDEVHERHLHNDFLLGVLQRLLPTRPDLKVILMSATINISLFSSYFSNAPVVQVPGRLFPITVVYQPQEAEPTTSKSEKLDPRPFLRVLESIDHKYPPEERGDLLVFLSGMAEISAVLEAAQTYASHTQRWVVLPLHSALSVADQDKVFDVAPPGVRKCILSTNIAETSVTIDGIRFVVDSGKVKEMSYDPQAKLQRLQEFWISQASAEQRKGRAGRTGPGVCFRLYAESDYDAFAPYPVPEIRRVALDSLVLQMKSMSVGDPRTFPFIEPPPPASLETAILYLRDQGALDSSEALTPIGSLLAQLPVDVVIGKMLILGSMFSLVEPVLTIAAALSVQSPFTRSAQSSPECAAARRPLESDQGDPFTLFNVFNAWVQVKSERSRNSRKWCRRRGIEEHRLYEMANLRRQFKELLEDHGLLAGAQAAQVGDSYSRLQQRRERRALHQLKRQHEEGAGRRRKVLRLQEEQDGGSSDEDRAGPAPPGASDGVDIQDVKFKLRHDLAQLQAAASSAQDLSREQLALLKLVLGRGLYPQLAVPDAFNSSRKDSDQIFHTQAKQGAVLHPTCVFAGSPEVLHAQELEASNCDGSRDDKDKMSSKHQLLSFVSLLETNKPYLVNCVRIPALQSLLLFSRSLDTNGDCSRLVADGWLELQLADSESAIRLLAASLRLRARWESALDRQLAHQAQQQLEEEEEDTPVSPKEVATLSKELLQFTASKIPYSLRRLTGLEVQNMYVGPQTIPATPHLPGLFGSSTLSPHPTKGGYAVTDFLTYNCLTNDTDLYSDCLRTFWTCPHCGLHAPLTPLERIAHENTCPQAPQDGPPGAEEAALETLQKTSVLQRPYHCEACGKDFLFTPTEVLRHRKQHV
With B1 the binding [4] was “binds”, the binding [5] was “binds” and the binding [6] was “binds”.

B2: T7-DHX34 full-length (enzyme, UniProt Q14147 1-1143)
chain: MPPPRTREGRDRRDHHRAPSEEEALEKWDWNCPETRRLLEDAFFREEDYIRQGSEECQKFWTFFERLQRFQNLKTSRKEEKDPGQPKHSIPALADLPRTYDPRYRINLSVLGPATRGSQGLGRHLPAERVAEFRRALLHYLDFGQKQAFGRLAKLQRERAALPIAQYGNRILQTLKEHQVVVVAGDTGCGKSTQVPQYLLAAGFSHVACTQPRRIACISLAKRVGFESLSQYGSQVGYQIRFESTRSAATKIVFLTVGLLLRQIQREPSLPQYEVLIVDEVHERHLHNDFLLGVLQRLLPTRPDLKVILMSATINISLFSSYFSNAPVVQVPGRLFPITVVYQPQEAEPTTSKSEKLDPRPFLRVLESIDHKYPPEERGDLLVFLSGMAEISAVLEAAQTYASHTQRWVVLPLHSALSVADQDKVFDVAPPGVRKCILSTNIAETSVTIDGIRFVVDSGKVKEMSYDPQAKLQRLQEFWISQASAEQRKGRAGRTGPGVCFRLYAESDYDAFAPYPVPEIRRVALDSLVLQMKSMSVGDPRTFPFIEPPPPASLETAILYLRDQGALDSSEALTPIGSLLAQLPVDVVIGKMLILGSMFSLVEPVLTIAAALSVQSPFTRSAQSSPECAAARRPLESDQGDPFTLFNVFNAWVQVKSERSRNSRKWCRRRGIEEHRLYEMANLRRQFKELLEDHGLLAGAQAAQVGDSYSRLQQRRERRALHQLKRQHEEGAGRRRKVLRLQEEQDGGSSDEDRAGPAPPGASDGVDIQDVKFKLRHDLAQLQAAASSAQDLSREQLALLKLVLGRGLYPQLAVPDAFNSSRKDSDQIFHTQAKQGAVLHPTCVFAGSPEVLHAQELEASNCDGSRDDKDKMSSKHQLLSFVSLLETNKPYLVNCVRIPALQSLLLFSRSLDTNGDCSRLVADGWLELQLADSESAIRLLAASLRLRARWESALDRQLAHQAQQQLEEEEEDTPVSPKEVATLSKELLQFTASKIPYSLRRLTGLEVQNMYVGPQTIPATPHLPGLFGSSTLSPHPTKGGYAVTDFLTYNCLTNDTDLYSDCLRTFWTCPHCGLHAPLTPLERIAHENTCPQAPQDGPPGAEEAALETLQKTSVLQRPYHCEACGKDFLFTPTEVLRHRKQHV
B2 was tested, and the binding [2] was “binds”.

B3: T7-DHX34 (1–809) (domain or fragment, UniProt Q14147 1-809)
chain: MPPPRTREGRDRRDHHRAPSEEEALEKWDWNCPETRRLLEDAFFREEDYIRQGSEECQKFWTFFERLQRFQNLKTSRKEEKDPGQPKHSIPALADLPRTYDPRYRINLSVLGPATRGSQGLGRHLPAERVAEFRRALLHYLDFGQKQAFGRLAKLQRERAALPIAQYGNRILQTLKEHQVVVVAGDTGCGKSTQVPQYLLAAGFSHVACTQPRRIACISLAKRVGFESLSQYGSQVGYQIRFESTRSAATKIVFLTVGLLLRQIQREPSLPQYEVLIVDEVHERHLHNDFLLGVLQRLLPTRPDLKVILMSATINISLFSSYFSNAPVVQVPGRLFPITVVYQPQEAEPTTSKSEKLDPRPFLRVLESIDHKYPPEERGDLLVFLSGMAEISAVLEAAQTYASHTQRWVVLPLHSALSVADQDKVFDVAPPGVRKCILSTNIAETSVTIDGIRFVVDSGKVKEMSYDPQAKLQRLQEFWISQASAEQRKGRAGRTGPGVCFRLYAESDYDAFAPYPVPEIRRVALDSLVLQMKSMSVGDPRTFPFIEPPPPASLETAILYLRDQGALDSSEALTPIGSLLAQLPVDVVIGKMLILGSMFSLVEPVLTIAAALSVQSPFTRSAQSSPECAAARRPLESDQGDPFTLFNVFNAWVQVKSERSRNSRKWCRRRGIEEHRLYEMANLRRQFKELLEDHGLLAGAQAAQVGDSYSRLQQRRERRALHQLKRQHEEGAGRRRKVLRLQEEQDGGSSDEDRAGPAPPGASDGVDIQDVKFKLRHDLAQLQAAASSAQDLSREQLALLKLVLGRGLY
B3 was tested, and the binding [2] was “binds”.
